The test system of this assay is P. falciparum strain NF54 asexual parasites. Nature of the assay: Asexual stage parasite growth inhibition, SYBR Green assay, 72 hours. Format: cell-based. To be noted: Plasmodium falciparum; NF54, 72 hours. The method, then:
In this example, several of the c-Abl inhibitors were tested in the asexual […] strain of P. falciparum parasites for activity against malaria. […] Drug activity in inhibiting growth of asexual stage parasites was tested using a SYBR Green assay as described previously (Eastman et al, Antimicrob. Agents. Chemother. 57:425-435, 2013; […] al., Antimicrob. Agents. Chemother. 48:1803-1806, 2004). […] The pre-diluted parasites were dispensed into a 1536-well plate (2.5 μL/well). […] The fluorescence of each well was measured at 520 nm following excitation at 490 nm using a ViewLux platereader (PerkinElmer).

By IC50 is commonly meant the point on the concentration scale where inhibition reaches its midpoint. High values mean lower potency, low ones higher potency. Turning to `Cc1ccc(NC(=O)c2ccc(CN3CCN(C)CC3)cc2)cc1Nc1nccc(-c2cccnc2)n1` [Imatinib], 142 nM corresponded to half-maximal inhibition (IC50).
